## Screening data, single-dose tests

Sequences of proteins named here, by UniProt entry; tags and fusion partners are left off. Residues count along the entry.
UniProt P9WNZ1, whole entry: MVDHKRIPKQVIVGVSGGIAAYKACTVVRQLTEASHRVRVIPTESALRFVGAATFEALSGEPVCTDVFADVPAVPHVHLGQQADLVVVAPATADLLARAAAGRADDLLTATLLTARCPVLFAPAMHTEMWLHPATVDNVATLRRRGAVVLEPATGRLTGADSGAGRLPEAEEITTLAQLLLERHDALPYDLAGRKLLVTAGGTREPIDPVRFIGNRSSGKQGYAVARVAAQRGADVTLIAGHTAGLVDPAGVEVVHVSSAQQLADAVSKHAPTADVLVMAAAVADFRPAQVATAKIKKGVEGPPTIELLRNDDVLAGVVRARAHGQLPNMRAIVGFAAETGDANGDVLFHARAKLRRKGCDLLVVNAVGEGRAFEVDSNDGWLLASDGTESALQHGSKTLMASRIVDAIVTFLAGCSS
UniProt I6X8D2, whole entry: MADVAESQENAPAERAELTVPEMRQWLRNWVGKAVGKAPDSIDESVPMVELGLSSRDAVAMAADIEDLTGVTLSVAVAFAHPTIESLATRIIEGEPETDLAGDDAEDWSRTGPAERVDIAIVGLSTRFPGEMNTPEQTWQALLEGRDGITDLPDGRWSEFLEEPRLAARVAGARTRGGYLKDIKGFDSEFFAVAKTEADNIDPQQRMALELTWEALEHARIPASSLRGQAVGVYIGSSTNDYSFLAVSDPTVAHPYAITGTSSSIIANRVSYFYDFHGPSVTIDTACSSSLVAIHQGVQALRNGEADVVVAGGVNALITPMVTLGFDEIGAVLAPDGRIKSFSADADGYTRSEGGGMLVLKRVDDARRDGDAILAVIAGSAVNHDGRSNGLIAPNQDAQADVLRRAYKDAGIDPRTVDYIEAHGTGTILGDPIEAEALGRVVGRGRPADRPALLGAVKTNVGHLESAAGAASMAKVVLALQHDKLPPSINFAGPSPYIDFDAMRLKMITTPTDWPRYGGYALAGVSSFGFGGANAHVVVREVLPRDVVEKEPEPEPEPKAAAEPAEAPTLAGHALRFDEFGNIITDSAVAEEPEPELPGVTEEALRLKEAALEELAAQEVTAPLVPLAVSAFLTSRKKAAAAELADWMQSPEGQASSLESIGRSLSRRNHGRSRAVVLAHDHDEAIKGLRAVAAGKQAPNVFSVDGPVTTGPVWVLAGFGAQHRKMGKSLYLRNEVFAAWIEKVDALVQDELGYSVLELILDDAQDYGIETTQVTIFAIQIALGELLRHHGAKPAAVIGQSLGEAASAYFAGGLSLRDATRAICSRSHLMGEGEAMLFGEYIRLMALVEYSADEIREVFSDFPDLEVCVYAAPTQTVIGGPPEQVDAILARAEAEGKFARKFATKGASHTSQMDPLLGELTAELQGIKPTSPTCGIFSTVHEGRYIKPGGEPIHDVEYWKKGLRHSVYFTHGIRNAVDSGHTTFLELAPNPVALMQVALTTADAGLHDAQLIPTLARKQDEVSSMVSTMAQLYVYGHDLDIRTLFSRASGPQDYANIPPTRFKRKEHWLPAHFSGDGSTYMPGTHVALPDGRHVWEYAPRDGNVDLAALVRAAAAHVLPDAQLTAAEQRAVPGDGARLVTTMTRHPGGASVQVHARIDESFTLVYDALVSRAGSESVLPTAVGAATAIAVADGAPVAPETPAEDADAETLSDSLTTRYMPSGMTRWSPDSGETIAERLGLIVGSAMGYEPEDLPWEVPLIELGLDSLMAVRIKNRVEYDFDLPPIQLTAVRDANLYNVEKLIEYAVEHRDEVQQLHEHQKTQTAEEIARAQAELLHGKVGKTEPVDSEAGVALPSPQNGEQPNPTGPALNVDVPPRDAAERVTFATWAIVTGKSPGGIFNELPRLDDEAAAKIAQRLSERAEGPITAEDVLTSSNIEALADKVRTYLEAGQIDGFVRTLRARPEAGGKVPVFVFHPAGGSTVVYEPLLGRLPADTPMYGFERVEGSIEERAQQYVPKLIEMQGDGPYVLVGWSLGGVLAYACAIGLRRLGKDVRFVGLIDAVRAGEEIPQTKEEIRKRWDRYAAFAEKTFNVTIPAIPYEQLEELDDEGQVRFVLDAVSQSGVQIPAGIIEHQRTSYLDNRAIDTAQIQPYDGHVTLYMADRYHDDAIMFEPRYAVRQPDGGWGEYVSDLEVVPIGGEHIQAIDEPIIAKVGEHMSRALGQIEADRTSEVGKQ
UniProt P9WPC5, whole entry: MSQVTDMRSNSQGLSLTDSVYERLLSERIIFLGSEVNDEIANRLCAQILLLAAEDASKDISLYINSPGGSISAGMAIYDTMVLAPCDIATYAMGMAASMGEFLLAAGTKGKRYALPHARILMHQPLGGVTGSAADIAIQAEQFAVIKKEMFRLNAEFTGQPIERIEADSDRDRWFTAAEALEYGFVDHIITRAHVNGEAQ
UniProt P9WPC3, whole entry partner: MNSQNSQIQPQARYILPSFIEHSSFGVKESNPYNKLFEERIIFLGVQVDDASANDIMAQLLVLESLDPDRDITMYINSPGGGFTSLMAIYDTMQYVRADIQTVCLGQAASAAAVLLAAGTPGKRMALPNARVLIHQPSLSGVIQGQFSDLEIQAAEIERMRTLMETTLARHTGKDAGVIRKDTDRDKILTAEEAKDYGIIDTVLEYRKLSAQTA
UniProt A4I591, 1-473: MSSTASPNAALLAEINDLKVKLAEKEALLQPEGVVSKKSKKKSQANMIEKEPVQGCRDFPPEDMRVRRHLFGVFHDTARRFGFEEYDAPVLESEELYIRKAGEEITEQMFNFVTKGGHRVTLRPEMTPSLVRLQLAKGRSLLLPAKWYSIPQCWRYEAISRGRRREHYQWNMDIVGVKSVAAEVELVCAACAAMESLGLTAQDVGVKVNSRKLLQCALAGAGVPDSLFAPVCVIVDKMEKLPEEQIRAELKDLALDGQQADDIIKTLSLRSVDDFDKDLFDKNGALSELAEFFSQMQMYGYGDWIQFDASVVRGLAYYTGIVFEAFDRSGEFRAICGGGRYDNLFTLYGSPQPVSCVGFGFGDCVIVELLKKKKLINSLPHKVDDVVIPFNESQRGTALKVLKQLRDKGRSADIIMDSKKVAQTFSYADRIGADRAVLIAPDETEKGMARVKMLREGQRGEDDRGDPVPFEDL
UniProt P9WFT3, whole entry: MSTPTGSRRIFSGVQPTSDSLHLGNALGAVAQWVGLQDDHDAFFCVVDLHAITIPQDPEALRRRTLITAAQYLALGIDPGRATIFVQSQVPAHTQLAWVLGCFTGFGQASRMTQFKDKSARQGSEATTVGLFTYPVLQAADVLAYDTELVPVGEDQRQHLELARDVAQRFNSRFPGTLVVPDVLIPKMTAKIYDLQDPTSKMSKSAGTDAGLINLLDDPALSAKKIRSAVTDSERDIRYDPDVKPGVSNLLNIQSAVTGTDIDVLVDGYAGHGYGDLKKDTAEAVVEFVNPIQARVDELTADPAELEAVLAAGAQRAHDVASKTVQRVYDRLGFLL

From ChEMBL document CHEMBL3988442, “University of Dundee, Small-Polar-MMV Screening Library” (2021).

CoaBC: 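Coenzyme A biosynthesis protein CoaBC, Mycobacterium tuberculosis (UniProt P9WNZ1). Enzyme assay of CoaBC with a phosphate dye (Biomol Green) read at 650 nm. Compounds at 30 µM. Direction is inferred from only a few compounds that gave an IC50; most scored high, so higher reads as stronger inhibition. Most strong results did not repeat in a second test. Of about 67,000 compounds tested this way, about 40 (0.06%) reached 50% or more in at least one test.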
Pks13 thioesterase: 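Polyketide synthase Pks13, Mycobacterium tuberculosis (UniProt I6X8D2). Enzyme assay of the thioesterase domain of polyketide synthase 13; the read-out is not stated. Compounds at 30 µM. Higher reads as stronger inhibition (inferred from which compounds were picked for retests). About 67,000 compounds were tested under these conditions; 0.46% (about 300) showed 50% or more at least once.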
ClpP1P2: 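ClpP1P2, Mycobacterium tuberculosis (UniProt P9WPC5 and UniProt P9WPC3). Protease assay of ClpP1P2, read by the AMC dye that it sets free. Concentration: 50 µM. Direction is inferred from only a few compounds that gave an IC50; most scored high, so higher reads as stronger inhibition. Most other retested compounds had strongly negative values. About 69,000 compounds were tested under these conditions; 0.015% (about 10) showed 50% or more at least once.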
LiHisRS: 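Enzyme assay of histidyl-tRNA synthetase; the read-out is not stated. Target: Histidine-tRNA ligase, Leishmania infantum (UniProt A4I591). Concentration: 30 µM. The record gives no direction; compounds that gave an IC50 in retests scored well above the rest, so higher reads as stronger inhibition. The assay is labelled LdHisRS but filed under L. infantum. About 69,000 compounds were tested under these conditions; 0.6% (about 410) showed 50% or more at least once.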
MtTrpRS: 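Tryptophan-tRNA ligase, Mycobacterium tuberculosis (UniProt P9WFT3). Enzyme assay of tryptophanyl-tRNA synthetase; the read-out is not stated. Tested at 10 µM. Direction is not recorded; retested compounds ran higher, which suggests that high means inhibition. About 65,000 compounds were tested under these conditions; 0.098% (about 64) showed 50% or more at least once.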

Values are the deposited “Percent Effect”, in %.
How 0% and 100% were set is not recorded. Most values in the screen are low, and negative values occur.
The compounds are a random part of those screened.
Two or more numbers in one place are separate tests of the same structure; such repeats can differ widely.
A dash means the value is not listed here; it may have been measured.

SMILES	CoaBC	Pks13 thioesterase	ClpP1P2	LiHisRS	MtTrpRS
O=S(=O)(NCc1ccccc1)N1CCN(c2ncccn2)CC1	0.8861	7.671	-10.94	-1.205	4.351
CNC(=O)CN(C(=O)c1ccccc1)[C@H]1C[C@H]2CCOC[C@H]2C1	-1.595	6.372	1.03	-2.062	-
COc1cccc2c1N(Cc1noc(C3CC3)n1)CCC2	-7.642	15.94	12.26	12.61	-0.7333
CS(=O)(=O)N1CCC2(CC1)CN(CC1CCOC1)c1ccccc12 (stereo not shown)	-1.975	6.392	-12.42	19.09	-
CS(=O)(=O)NCC(=O)N[C@H]1CN(CC2CC2)C[C@@H]1c1ccccc1	0.2475	-12.91	-12.07	20	3.942
Cc1ccc(N2CCCC(N(C)Cc3nnc(C4CC4)o3)C2)nn1 (stereo not shown)	-0.615	-	-5.781	19.35	-3.194
CCN(Cc1ccc(C#N)cc1F)C(=O)CN(C)CC(N)=O	6.087	-40.18	1.208	9.948	0.4817
Nc1nccc(-c2cccc3ccnn23)n1	-4.902	10.2	-64.76	13.33	1.852
CNc1ncc2c(n1)CN(c1cccc(OC)c1)C2=O	-1.386	-16.85	-3.853	6.897	-1.425
CC(CO)N1CCN(C(=O)OC(C)(C)C)CC1 (stereo not shown)	2.917	-31.65	6.367	1.587	-2.812
CCn1ccc(C(=O)N(C)Cc2cnn(-c3cccc(OC)c3)c2)n1	-	-54.86	6.324	28.57	-4.85
CCc1noc(C2CCN(C(=O)CCn3nc(C)cc3C)CC2)n1	13.18	-	-3.625	16.04	-3.065
O=C(O)c1ccc(F)c(S(=O)(=O)Nc2ccc(-n3cccn3)c(Cl)c2)c1	0	-12.78	-4.58	-22.33	4.44
CN(C)C(=O)Cn1cc(C(=O)N2CCCc3cccc(F)c32)nn1	-1.211	-6.915	-5.375	2.174	-0.06325
Cc1nc(N2CCCC2)nc2c1CCN(C(=O)N1CCCC1)CC2	4.235	-26.32	-2.702	35.78	-5.473
Cn1nc(CN2CCCC2)c2c1CN(C(=O)c1cccnc1)CC2	5.882	-16.91	-5.343	10.53	0.5162
CN(CC(=O)N1CCN(c2ncccn2)CC1)c1ccc(Cl)cn1	4.478	-6.447	-8.722	15.38	-4.721
CC(NCc1cc2cc(F)ccc2o1)c1nnc2n1CCCC2 (stereo not shown)	4.637	-16.09	-5.336	9.091	-4.036
Cc1cc(C)nc(N2CCC(c3ccnc(N(C)C)n3)CC2)n1	-1.456	9.177	-16.61	11.43	-3.594
COc1ccc(NC(=O)c2cccc(OC)c2OC)cc1	5.976	-16.62	-9.78	16.44	-7.736
CCCOc1ccc(CNC2CCCc3c2cnn3CC)cc1OC (stereo not shown)	-2.314	-28.56	-3.822	-10.11	-0.3934
CCc1nc(N2CCCC(CCOC)(C(=O)O)C2)ncc1C (stereo not shown)	2.297	-3.902	-6.448	11.29	4.224
CCc1ccc(NC(=O)N2C[C@H]3C[C@H](C(=O)NC(C)C)[C@@H](C2)O3)cc1	2.061	7.107	1.038	-1.923	-
Cc1nn(C)c(Cl)c1S(=O)(=O)N(C)C	-3.913	-13.66	2.414	14.58	-2.716
O=C(Nc1cccc(CNCc2ccccn2)c1)C1CCCC1	4.608	-7.474	-27.05	18.35	2.129
COc1ccc(N2CCC(NC(=O)c3sccc3C)CC2)cc1	-1.294	2.971	13.28	10.59	0.3028
COc1ccc(Oc2ccc(CNC(=O)C(C)n3cncn3)cn2)cc1 (stereo not shown)	-2.885	9.704	-11.19	15.07	-3.086
CN(C(=O)c1cnc(N2CCOCC2)nc1)C1Cc2ccccc2C1	2.451	-11.93	-5.524	11.11	3.827
CN(Cc1cnn(C)c1)c1nccc(-c2cc(C(=O)O)ccn2)n1	8.395	-18.05	4.4	0	12.37
N#Cc1ccc(C(=O)O)nc1/C=C/c1cccc(Cl)c1	3.125	51.39	-4.15	-2.083	4.025
COCc1cc(CN(C)C(=O)CCC(=O)Nc2cc(C)ccc2F)n[nH]1	3.931	21.5	-16.75	7.143	2.465
O=C(c1c[nH]c(=O)[nH]1)N1CCCC2(CCC(=O)N(C3CCCC3)C2)C1 (stereo not shown)	5.832	-23.42	-5.404	17.14	3.191
CC(C)OC(C)c1nnc(SCC(=O)O)n1-c1ccc(F)cc1F (stereo not shown)	5.857	-25.2	-4.951	31.25	3.374
COc1cc(C)c2c(c1C)C[C@H]([C@H](C)C(=O)O)CC2	-34.38	4.325	2.9	10.81	-5.568
COc1ccnc(NC(=O)CSCc2cccnc2)c1	3.823	-34.24	-3.72	15.38	-1.955
N#CCc1ccc(NC(=O)CNc2ccc(Br)cc2F)cc1	4.545	-12.13	9.452	9.821	-1.955
Cc1ccc(SCCCNC(=O)c2cn([C@H]3CC[C@@H](N)CC3)nn2)cc1	2.683	-60.93	-0.6601	16.67	0.5093
O=C1CCC2(CCCN(c3ncnc4[nH]cnc34)C2)CN1CCCO (stereo not shown)	3.186	-12.2	-2.098	17.78	0.000006
CCn1c(N)nc2cc(C(=O)NCCc3ccccc3C)cnc21	10.02	-15.33	8.09	13.46	-1.639
Cc1cccc(CNC2CC(=O)N(Cc3cccc(F)c3)C2)c1 (stereo not shown)	11.16	-3.994	-18.66	3.774	-0.8244
CCO[C@H]1CO[C@@]2(CCN(Cc3ccc4c(c3)OCO4)C2)C1	0.6435	-29.06	-7.23	5.769	-8.576
Cc1cc(NCCCC(F)(F)F)n2nc(C)cc2n1	-30.95	8.475	-11.37	4.918	2.415
CCN(C)C[C@@H]1CN(C(=O)NC2CCCCC2)C[C@@H]1CO	12.7 and 42.22	-8.254	-8.035	9.836	-0.7322
CN(Cc1nc2ccccc2[nH]1)C(=O)CN(C)c1ccccc1	-0.6135	4.273	-0.6713	1.961	-1.398
CC(NC(N)=O)C(=O)NCc1ccnc(Oc2ccc(F)cc2)c1 (stereo not shown)	2.564	-3.107	0.3617	17.81	-3.263
c1ccc2c(c1)CCN(c1nc(N3CCOCC3)c3nn[nH]c3n1)C2	-5.051	-20.67	-2.559	6.452	3.083
CCc1n[nH]c(C(=O)N2CCC3(CCCN(CCOC)C3=O)C2)c1C (stereo not shown)	2.589	-12.63	2.117	12.94	0.1514
CCC(CNS(=O)(=O)c1c[nH]cn1)Oc1ccccc1F (stereo not shown)	-0.3984	-14.68	-15.35	10.96	-3.343
Cc1nc(CN2CCO[C@@H]3CN(Cc4cccs4)C[C@@H]3C2)cs1	7.143	-12.46	2.373	18.18	0.1744
CCCc1noc(CCC(=O)N2CCCC2c2ccncc2)n1 (stereo not shown)	-0.5249	-3.081	-17.52	5.085	-6.074
CCOCCC(=O)N1CCCN(c2ccccc2C)CC1	6.25	-17.53	16.32	9.091	-1.615
CCn1ncnc1C(C)NC(=O)C1CCN(C(=O)COC)CC1 (stereo not shown)	-1.322	-13.94	2.417	22.64	0.3353
O=C(CC(SC1CCCCC1)C(=O)O)c1ccc(Cl)cc1 (stereo not shown)	2.532	-7.633	-14.4	10.42	-8.863
CC(C)(C)c1nc(CN2CCCC(Cn3cncn3)C2)cs1 (stereo not shown)	2.491	-11.33	22.85	11.9	3.521
CCC(SC)C(=O)N1CCC(n2ccnn2)CC1 (stereo not shown)	-0.9926	-5.751	-14.15	17.02	-2.221
CCCNC(=O)C1CCN(CC(O)c2ccccc2)CC1 (stereo not shown)	3.676	-32.79	-9.178	18.99	4.6
CN(CCc1ccccc1)C(=O)CN1C(=O)OC[C@@H]1c1ccccc1	-0.6098	-20.24	-9.593	-2.198	-0.9272

Some entries from above, unchanged:

* O=C1CCC2(CCCN(c3ncnc4[nH]cnc34)C2)CN1CCCO (stereo not shown) | CoaBC: 3.186%; Pks13 thioesterase: -12.2%; ClpP1P2: -2.098%; LiHisRS: 17.78%; MtTrpRS: 0.000006%
* CCCNC(=O)C1CCN(CC(O)c2ccccc2)CC1 (stereo not shown) | CoaBC: 3.676%; Pks13 thioesterase: -32.79%; ClpP1P2: -9.178%; LiHisRS: 18.99%; MtTrpRS: 4.6%
* CCC(SC)C(=O)N1CCC(n2ccnn2)CC1 (stereo not shown) | CoaBC: -0.9926%; Pks13 thioesterase: -5.751%; ClpP1P2: -14.15%; LiHisRS: 17.02%; MtTrpRS: -2.221%
* CC(CO)N1CCN(C(=O)OC(C)(C)C)CC1 (stereo not shown) | CoaBC: 2.917%; Pks13 thioesterase: -31.65%; ClpP1P2: 6.367%; LiHisRS: 1.587%; MtTrpRS: -2.812%